These are yes or no findings as the source states them, for the method shown. In cells and extracts the contact can be indirect. Binding calls can cover weak binding; strength is not graded here. Tags and fused reporters may be left off the sequences shown.
Biological target: T1, chicken Fos (pCAG-Fos-HA) (chicken) (UniProt P11939)
T1 sequence: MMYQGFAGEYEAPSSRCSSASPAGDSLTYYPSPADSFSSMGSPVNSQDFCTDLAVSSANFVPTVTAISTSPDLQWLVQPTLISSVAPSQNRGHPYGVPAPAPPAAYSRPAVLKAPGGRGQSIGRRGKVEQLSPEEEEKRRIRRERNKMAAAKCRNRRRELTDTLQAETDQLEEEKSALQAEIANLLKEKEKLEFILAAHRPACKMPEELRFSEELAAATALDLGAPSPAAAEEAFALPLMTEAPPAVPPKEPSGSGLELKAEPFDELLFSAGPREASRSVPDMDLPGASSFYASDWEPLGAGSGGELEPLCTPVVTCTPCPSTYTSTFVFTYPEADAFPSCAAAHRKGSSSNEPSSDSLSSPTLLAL
Assay: co-IP; p53 and Fos expression vectors co-transfected into LMH cells, with or without ILTV infection (MOI = 1, 9 hpi); IP-grade RIPA lysis; precleared lysate incubated overnight with anti-HA or anti-Flag antibody, protein A/G agarose; isotype control antibody; Western blot

By UniProt entry, the sequences of proteins in these tests, tags left out. Where a name states a change or a piece, a line headed by the entry shows the natural chain unless it says otherwise.
UniProt P10360: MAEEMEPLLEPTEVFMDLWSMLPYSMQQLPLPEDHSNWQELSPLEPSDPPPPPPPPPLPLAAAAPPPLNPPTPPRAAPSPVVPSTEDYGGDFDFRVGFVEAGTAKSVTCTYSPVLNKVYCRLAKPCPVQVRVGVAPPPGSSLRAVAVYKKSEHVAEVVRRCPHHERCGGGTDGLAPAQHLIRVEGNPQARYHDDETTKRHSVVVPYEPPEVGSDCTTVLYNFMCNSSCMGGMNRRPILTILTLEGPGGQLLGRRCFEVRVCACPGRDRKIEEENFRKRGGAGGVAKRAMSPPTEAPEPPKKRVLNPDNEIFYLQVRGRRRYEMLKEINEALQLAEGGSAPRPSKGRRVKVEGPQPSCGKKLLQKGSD

With “p53 mutant protein pm1 (p53-R160H, pCAG-pm1-Flag) (from UniProt P10360)” the binding was “binds”.
